Columns and labels:
E. coli TOP10 [1] = experiment: Deep mutational scanning, site-saturation Bac7_1-23 library, intracellular self-screening with NGS; type: cell-based; settings: site-saturation library, 156,779 variants; rank 1 = most active
Procedure: A focused strategy was pursued to generate diversity at positions 5, 18, 19, and 20 in the Bac7_1-23 peptide. […] Degeneration was introduced by using the QuikChange technique, amplifying the pBAD plasmid containing the Bac7_1-23 gene using a mixture of 20 oligonucleotides (Additional file 1: Table S1) at a final concentration of 0.3 μM and Phusion® High-Fidelity PCR Master Mix in HF buffer. The amplification was performed using 20 cycles of 98°C for 10 s, 60°C for 15 s, and 72°C for 10 s. The PCR product was treated with the enzyme Dpn1 to remove the template plasmid and subsequently purified. The purified product was used to transform 20 μl of CloneCatcher™ Gold DH5G Electrocompetent E. coli (Genlantis, Burlington, USA) cells using electroporation.
To assess the antimicrobial activity of multiple peptides in parallel when expressed intracellularly in E. coli TOP10, previously prepared aliquots containing E. coli plasmid libraries created by either random mutagenesis or site-saturation mutagenesis were used. For both approaches, three aliquots containing approximately 500 million cells each of E. coli TOP10 harboring peptide-encoding DNA sequences on the pBAD plasmid were thawed and added to three 1-l baffled shake flasks containing 100 ml of LB medium + 100 μg ml^−1 carbenicillin. The cultures were grown for roughly 7 h at 37°C.

E. coli TOP10 [2] = experiment: Deep mutational scanning, epPCR (randomly mutagenized) Bac7_1-23 library, intracellular self-screening with NGS; type: cell-based; settings: epPCR library, 601,551 variants; rank 1 = most active; qualitative measure

| Sequence | Rank by antimicrobial activity (E. coli TOP10 [1]) | Rank by antimicrobial activity (E. coli TOP10 [2]) |
| --- | --- | --- |
| RRIRKRPPRLPRPRPRPYSNPRP [site-saturation library peptide ID 98068] | 2 | – |
| RRIRPRPPRLPRPRPRTLLFPWP [epPCR library peptide ID 294002] | – | 4 |
